{"source": "patent US20230125052A1", "about": "“RED BLOOD CELL-DERIVED VESICLE” (Imperial College Innovations Limited, priority 2019, published 2023)", "binders": {"B1": {"name": "cyclo(Arg-Gly-Asp-d-Phe-Val), free (peptide)", "peptide": "RGDFV", "modifications": "head-to-tail cyclic peptide; d-Phe at position 4"}}, "biological_target": "active GPIIb-IIIa (αIIbβ3) integrin on thrombin-activated platelets (sheep)", "assay": "platelet aggregation inhibition in PRP, thrombin-activated", "note": "Results are given in words; binding and its absence hold for the method and conditions named. Some entries that bind do so weakly or less than the wild type."}
{"binder": "B1", "values": [{"measurement": "binding", "value": "binds"}]}
